Data published in patent US5024994A (Warner-Lambert Company, priority 1988, dated 1991).
HELM strings list residues between dots; [ac] is acetyl, [am] amide, other brackets name non-standard units.

Experiment: general procedure: solution-phase peptide synthesis; DCC/HOBT
Conditions: coupling step

With “PEPTIDE1{[BOC].F.[ARG(NO2)].[STA].L.[NHCH2Ph]}$$$$V2.0” the step yield was 82%.
